Assay results as given in paper PMC7758216.
These are yes or no findings as the source states them, for the method shown. In cells and extracts the contact can be indirect. Some binding calls cover weakened binding; strength is not graded here. Sequences can lack the tags named with a protein. Values belong to the binder of their own block, whether it stands above or below them.

By UniProt entry, the sequences of proteins in these tests, tags left out.
UniProt P51159: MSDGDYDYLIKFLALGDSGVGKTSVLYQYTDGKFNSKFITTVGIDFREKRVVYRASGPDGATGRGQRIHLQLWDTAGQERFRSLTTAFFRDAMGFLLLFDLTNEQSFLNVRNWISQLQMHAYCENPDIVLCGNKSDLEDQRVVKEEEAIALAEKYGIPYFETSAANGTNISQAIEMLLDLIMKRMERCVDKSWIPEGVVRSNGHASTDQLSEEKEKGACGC

Target: FLAG-tagged RAB27A (wild-type) (human) (UniProt P51159)
Experiment: co-IP; COS-7 cells co-transfected 24 h; lysates (50 mM HEPES-KOH pH 7.2, 150 mM NaCl, 1 mM MgCl2, 1% Triton X-100) incubated 1 h at 4°C with anti-FLAG tag antibody-conjugated agarose beads (FLAG-RAB27A precipitated); T7-tagged effector detected by anti-T7 immunoblot

- binding: binds
B1: T7-tagged MUNC13-4 (protein, UniProt B2RUP2 1-1085)
chain: MATHLSHPQRRPLLRQAIKIRRRRVRDLQDPPPQATQEVQVQSHHFSPEERDLLYEEALYTVLHRLGQPEPNHVKEASELLSYLQEAFQVQPEEHQQMLRRVRELEKPVFCLKATVKQAKGILGKDVSGFSDPYCLLGIEQKVGVAEGSPVSRRRQKAVVKHTIPEEETHRTQVKSQTLNPVWDETFILEFEDIANASFHLDMWDLDTVESVRQKLGELTDLHGLRRIFKEARKDKGQDDFLGNVVLRLQDLRCREDQWFPLEPCTETYPDRGQCHLQFQFIHKRRATAASRSQPSYTVHFHLLQQLVSHEVTQHQAGSTSWDASLSPQAVTILFLHATQKDLSDFHQSMAQWLAYSRLYQSLEFPSSCLLHPITSIEYQWIQGRLKAEQREELATSFTSLLAYGLSLIRKFRSVFPLSVSDSPSRLQSLLRVLVQMCKMKAFGELCPDSAPLSQLVSEALRMGTVEWFHLMQQHHQPMVQGILEAGKALLNLVQDVMGDLYQCRRTWNKIFHNVLKIDLFSMAFLELQWLVAKRVQDHTVAAGNLVSPDIGESLFQLYVSLKELCQLGPVPSDSREVLALDGFHRWFQPAIPSWLQKTYSVALERVQRAVQMDTLVPLGELTKHSTSAVDLSTCFAQISHTARQLDWPDPEEAFMITVKFVEDTCRLALVYCSLIKARARELSAVQKDQSQAADMLCVVVNNMEQLRLIIDKLPTQLAWEALEQRVGAVLEEGQLQNTLHAQLQGALAGLGHEIRTGVRTLAEQLEVGIATHIQKLIGVKESVLPEDAILPLMKFLEVKLCYMNTNLVQENFSSLLTLLWTHTLTVLVEVASSQRSSSLASGRLKVALQNLEVCFHAEGCGLPPEALHTDTFQALQNDLELQAASSRELIQKYFCSRIQQQAETTSERLGAVTVKVSYRASEQRLRVELLSASSLLPLDSNGSSDPFVQLTLEPRHEFPEVAPRETQKHKKELHPLFDETFEFLVPAEPCQKAWACLLLTVLDHDRLGADDLEGEAFLPLCRVPGLTDCAEPGEAPQMRLPLTYPAPNGDPILRLLESRKGDREAQAFVKLRRQRAKQASQHAP

- binding: binds
B2: T7-tagged SLP2-A (protein, UniProt Q99N50-1 1-950)
chain: MIDLSFLTEEEQDAILKVLQRDAALKRAEEERVRHLPEKIKDDQQLKNMSGQWFYEAKAKRHRDKIHGADIIRASMRRKKLPAAAEQNKDTAMRAKESWVNNVNKDAVLPPEIAVVEEPEDDTDPAGPSSSLVDPASSVIDMSQESTRTPAVSLPKQRKNPFNSPKLPEDHSLQQTKPEQSKTGKAGLFQISKEGELSESKEKSSIPDMPRQQLEKPKQTVSTEPENASHTKAPIPKARKLIYKSNDLEKDDNQSFPRQRRDSLNARGAPRGILKRNSSSSSTDSETLRLNYNLDPKSKILSPGLTIHERISEKEFSLEDDSSTSSLEPLKHVRFSAVKNELPQSPRPVLGQEVGEFTVLESDQLQNGTEDAGDIEEFQNHPELSHKTPLSHYQLVSSPSDSGREREQLMSSGSAPRDEIPCHSDILPTGPQCVESSSVINGQQEKSSHFTKLPSELSKSPSDELTQCGEPEPSQTADHSFRDHRQGSEEEHSPVLKTLERRAARKLPSKSLEDIPSDSSNQAKVDNLPEELVRSAEDDQKADQEPDTNECIPGISTVPSLPDNQFSHPDKLKRMSKSVPAFLQDESDDRETDTASESSYQLRRYKKSPSSLTNLSSSSGMTSLSSASGSVMSVYSGDFGNLEVKGSVQFALDYVESLKELHVFVAQCKDLAAADVKKQRSDPYVKTYLLPDKGKMGKKKTLVVKKTLNPVYNEILRYKIERQFLKTQKLNLSVWHRDTFKRNSFLGEVELDLETWDWDSKQNKQLKWYPLKRKTAPVALETENRGEMKLALQYVPEPSPGKKLPTTGEVHIWVKECLDLPLLRGSHLNSFVKCTILPDTSRKSRQKTRAVGKTTNPVFNHTMVYDGFRPEDLMEACVELTVWDHYKLTNQFLGGLRIGFGTGKSYGTEVDWMDSTSEEVALWEKMVNSPNTWVEATLPLRMLLIAKLSK
